The values below come from publication PMC7188950.

Sequences of proteins named here, by UniProt entry; tags and fusion partners are left off. Residues count along the entry.
UniProt P42227: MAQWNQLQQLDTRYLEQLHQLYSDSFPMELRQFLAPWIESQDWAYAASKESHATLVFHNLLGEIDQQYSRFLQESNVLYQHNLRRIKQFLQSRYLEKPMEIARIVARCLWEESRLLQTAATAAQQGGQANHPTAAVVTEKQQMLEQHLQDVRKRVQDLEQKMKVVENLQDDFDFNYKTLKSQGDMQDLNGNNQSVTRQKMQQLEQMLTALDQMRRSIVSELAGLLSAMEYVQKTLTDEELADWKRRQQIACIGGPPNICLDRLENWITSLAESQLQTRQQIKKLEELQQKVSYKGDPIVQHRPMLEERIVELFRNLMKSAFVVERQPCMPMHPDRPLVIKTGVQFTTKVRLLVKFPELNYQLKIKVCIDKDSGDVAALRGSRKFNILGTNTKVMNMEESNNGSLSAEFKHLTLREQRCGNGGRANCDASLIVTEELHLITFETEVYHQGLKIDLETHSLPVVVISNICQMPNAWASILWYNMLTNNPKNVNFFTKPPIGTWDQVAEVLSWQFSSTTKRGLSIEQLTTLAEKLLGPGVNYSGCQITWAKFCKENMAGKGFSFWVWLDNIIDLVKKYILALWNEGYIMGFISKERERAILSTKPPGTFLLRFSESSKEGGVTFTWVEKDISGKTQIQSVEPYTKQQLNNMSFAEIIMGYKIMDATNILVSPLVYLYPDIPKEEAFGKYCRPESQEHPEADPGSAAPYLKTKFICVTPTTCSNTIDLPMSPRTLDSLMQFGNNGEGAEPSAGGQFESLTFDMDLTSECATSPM
UniProt Q9ERS2: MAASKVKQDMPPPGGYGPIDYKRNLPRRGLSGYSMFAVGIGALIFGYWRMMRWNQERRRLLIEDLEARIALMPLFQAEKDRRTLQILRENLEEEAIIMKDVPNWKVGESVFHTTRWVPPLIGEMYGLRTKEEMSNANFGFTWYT
UniProt Q9DC69, residues 36-377: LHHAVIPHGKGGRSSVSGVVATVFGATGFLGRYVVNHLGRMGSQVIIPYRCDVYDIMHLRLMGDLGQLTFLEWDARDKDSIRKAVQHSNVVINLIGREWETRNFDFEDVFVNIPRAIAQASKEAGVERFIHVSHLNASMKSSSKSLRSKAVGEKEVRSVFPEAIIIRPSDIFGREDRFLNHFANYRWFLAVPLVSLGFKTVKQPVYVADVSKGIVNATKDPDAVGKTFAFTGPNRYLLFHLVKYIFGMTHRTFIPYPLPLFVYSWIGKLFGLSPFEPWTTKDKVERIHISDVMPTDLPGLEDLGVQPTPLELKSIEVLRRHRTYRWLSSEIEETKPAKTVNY

Assay [1] deals with Signal transducer and activator of transcription 3 (mouse (endogenous in crude mitochondria)) (UniProt P42227). Nature of the assay: co-IP; crude mitochondria solubilized with 2% digitonin (detergent:protein = 4:1), diluted five times with MRB; Protein A/G beads coated with STAT3, NDUFA13 or GFP antibody; overnight at 4°C; four washes with MRB; Western blot.
The target in assay [2] is NADH:ubiquinone oxidoreductase subunit A13 (mouse (endogenous in crude mitochondria)) (UniProt Q9ERS2). Described as above.

No constants are given. Whether binding was seen depends on the method and setting. Binding seen in cells or lysates may run through a third protein. Some entries that bind do so weakly or less than the wild type.

Consider “NADH:ubiquinone oxidoreductase subunit A9 (from UniProt Q9DC69 36-377)”, for which the binding entry in assay [1] was “no binding”; in assay [2], “binds”.
